This passage reports binding results from publication PMC10825207.

Sequences of proteins named here, by UniProt entry; tags and fusion partners are left off.
UniProt P06748: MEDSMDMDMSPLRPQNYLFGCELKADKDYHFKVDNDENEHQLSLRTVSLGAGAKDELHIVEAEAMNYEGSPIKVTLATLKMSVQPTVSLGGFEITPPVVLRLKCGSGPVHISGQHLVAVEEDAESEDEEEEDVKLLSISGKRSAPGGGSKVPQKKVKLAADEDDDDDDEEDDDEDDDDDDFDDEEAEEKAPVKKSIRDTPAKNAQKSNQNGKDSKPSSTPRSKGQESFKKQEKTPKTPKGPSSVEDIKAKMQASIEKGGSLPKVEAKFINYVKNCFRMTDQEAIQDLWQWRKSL
UniProt P46937: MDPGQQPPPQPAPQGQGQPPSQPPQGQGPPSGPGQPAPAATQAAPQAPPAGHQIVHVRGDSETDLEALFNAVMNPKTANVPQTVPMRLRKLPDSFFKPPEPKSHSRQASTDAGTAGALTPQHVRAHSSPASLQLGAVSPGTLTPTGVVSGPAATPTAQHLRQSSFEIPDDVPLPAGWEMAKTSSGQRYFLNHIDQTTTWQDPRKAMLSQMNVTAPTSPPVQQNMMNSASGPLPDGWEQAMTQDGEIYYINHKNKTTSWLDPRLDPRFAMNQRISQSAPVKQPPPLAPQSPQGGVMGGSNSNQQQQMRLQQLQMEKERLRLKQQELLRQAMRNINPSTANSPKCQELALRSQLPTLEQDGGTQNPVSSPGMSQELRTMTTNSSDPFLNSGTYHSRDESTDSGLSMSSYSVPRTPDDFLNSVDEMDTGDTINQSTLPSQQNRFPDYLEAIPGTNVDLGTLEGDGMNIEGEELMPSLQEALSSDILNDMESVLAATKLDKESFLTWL

One assay has as its target NPM1 WT (in 293T cells) (UniProt P06748). Nature of the assay: co-IP; CoIP of YAP1 and NPM1 (WT, Thr95D or Thr95A) from lysates of 293T cells.
Assay [1] deals with nucleophosmin1 (NPM1) (human (endogenous in A673 and other ES cell lines)) (UniProt P06748). The assay is described as follows: co-IP; endogenous proteins in ES cell lysates (50 mM Tris-HCl pH 7.4, 150 mM NaCl, 1 mM EDTA, 1% NP-40, 1 mM DTT); 1 mg lysate with AURKA/NPM1 antibodies overnight at 4 °C, beads, Western blot; IgG as negative control.
The target of assay [2] is T1, Aurora kinase A (AURKA) (human (endogenous in A673 and other ES cell lines)) (UniProt O14965).
T1 sequence: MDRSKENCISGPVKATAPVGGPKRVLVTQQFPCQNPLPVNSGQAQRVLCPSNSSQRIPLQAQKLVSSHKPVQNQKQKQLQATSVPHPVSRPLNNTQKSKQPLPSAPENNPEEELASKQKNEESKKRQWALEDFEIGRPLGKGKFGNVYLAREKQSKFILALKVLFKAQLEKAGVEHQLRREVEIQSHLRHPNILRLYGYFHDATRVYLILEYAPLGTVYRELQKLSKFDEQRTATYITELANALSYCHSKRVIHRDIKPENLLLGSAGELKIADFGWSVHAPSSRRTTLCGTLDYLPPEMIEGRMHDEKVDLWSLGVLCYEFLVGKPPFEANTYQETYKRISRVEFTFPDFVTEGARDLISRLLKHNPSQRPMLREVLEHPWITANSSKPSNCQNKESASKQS
The assay is described as above.

Results are given in words; binding and its absence hold for the method and conditions named. In cells and extracts the contact can be indirect. Some results given as binding are weak or reduced against the parent protein; the word gives no strength.

For the substance “YAP1 (in 293T cells) (from UniProt P46937 1-504)”, in the assay with NPM1 WT (in 293T cells), the binding result is listed as “binds”.

On to “Yes1 associated transcriptional regulator (YAP1) (from UniProt P46937 1-504)”, for which, in assay [1], the binding entry is “binds”.

“nucleophosmin1 (NPM1) (from UniProt P06748 1-294)”: the binding result in assay [2] is “binds”.
